This assay can be described thus: qHTS Assay for Lipid Storage Modulators in Drosophila S3 Cells.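 On cell number change: cells counted by Cell Tracker Red CMTPX staining in the red channel.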 The settings on record: BODIPY lipid droplet fluorescence, 18-24 h; for cell number change: measured here: cell count max response, cells fed with added oleic acid. In outline: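 Laser-scanning cytometry quantifies lipid droplet accumulation (500–530 nm total intensity; droplet/cell object ratio) in oleic acid-fed (400 uM added) Drosophila S3 cells treated with a concentration series. 20 uM Triacsin C defined 100% inhibition.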

[1] abbreviates: measured here: cell number channel AC50, cells fed with added oleic acid.
[2] abbreviates: measured here: lipid fluorescence (Fed channel) AC50, cells fed with added oleic acid.

The other results are listed elsewhere or left out. The main result of the screen is listed elsewhere. These columns were measured beside it and carry no call. Most of these compounds were active or inconclusive in the main read-out, so they are no random draw. The note in brackets gives the kind of curve behind each potency; many fits are weak.

As for `CCOc1ccc(N2C(=O)c3ccccc3NC2(C)CC)cc1` (stereo not drawn), the cell number change is -2.67%. For the same molecule, the AC50 under setting [1] is 0.731 µM [falling, single point]. Also, the concentration at half-maximal activity (AC50) under setting [2] was 0.651 µM [falling, single point].

For the molecule `CC1(C)CC2CC(C)(CN2C(=O)c2cc(-c3ccc(O)cc3)on2)C1` (stereo not drawn), the half-maximal activity concentration (AC50) under setting [2] is 0.731 µM [falling, partial curve, poor fit].

As to `CC(=O)NCCn1c(SCC(=O)NCCc2ccc(S(N)(=O)=O)cc2)nc2ccccc2c1=O`, the cell number change is 34.5%. Besides, the AC50 under setting [1] is 32.6 µM [rising, single point].

With `COc1ccccc1N1CCN(C(=O)Nc2cccc(Cl)c2)CC1`, the cell number change turned out to be 114%. Besides, under setting [1], the concentration at half-maximal activity (AC50) was 9.2 µM [rising, partial curve]. The half-maximal activity concentration (AC50) under setting [2] was 13 µM [rising, partial curve].

For `COc1ccc(OC)c(N/C=C2/CCCCC2=O)c1`, the cell number change turned out to be 15.5%. The half-maximal activity concentration (AC50) under setting [2] was 29.1 µM [rising, single point].

`COc1ccc(C(=O)N/C(N)=N/c2nc3ccccc3o2)cc1`: the cell number change is -41.2%. Besides, under setting [1], the half-maximal activity concentration (AC50) was 11.6 µM [falling, partial curve]. The half-maximal activity concentration (AC50) under setting [2] is 16.4 µM [falling, single point].

As for `O=C(COc1ccc(S(=O)(=O)N2CCOCC2)cc1)Nc1ccc(Cl)c(C(F)(F)F)c1`, the cell number change was -27%. The concentration at half-maximal activity (AC50) under setting [2] was 2.06 µM [rising, single point].

With `O=C(CCn1c(=O)[nH]c2ccsc2c1=O)N1CCN(c2ccc([N+](=O)[O-])cc2)CC1`, the cell number change turned out to be 24.8%. Moreover, the half-maximal activity concentration (AC50) under setting [2] was 29.1 µM [falling, single point].

Regarding `CCSc1nnc(NC(=O)CN2C(=O)C3CC=CCC3C2=O)s1` (stereo not drawn), the cell number change is -22.2%. Also, under setting [2], the AC50 was 0.00461 µM [falling, full curve, poor fit].

On to `Cn1c(-n2c(CCN3C(=O)c4ccccc4C3=O)nc3ccccc3c2=O)nc2ccccc21`, for which the cell number change turned out to be 28.2%. Also, under setting [2], the AC50 was 0.517 µM [rising, partial curve, poor fit].

Regarding `COc1cccc(Nc2ncnc3onc(-c4ccccc4OC)c23)c1`, the cell number change is -0.898%. Also, the AC50 under setting [2] is 14.6 µM [rising, partial curve].

`Cc1cc(C)c(S(=O)(=O)Nc2nnc(C(C)C)s2)c(C)c1`: the cell number change was determined as 15.8%.

With `COC(=O)c1ccc(CSc2nnc(-c3ccc4c(c3)OCO4)n2-c2ccccc2)o1`, the cell number change was -2.6%.

Regarding `CCOC(=O)c1cc(-c2ccc(/C=C3/C(=O)N(c4ccc(C(=O)O)cc4)N=C3C)o2)ccc1Cl`, the cell number change was -30.6%. Besides, the AC50 under setting [1] is 11.6 µM [falling, partial curve, poor fit].

As for `O=C(CN(C1CCCCC1)S(=O)(=O)c1ccc(F)cc1)NC1CC1`, the cell number change is -10.5%. Besides, the AC50 under setting [2] is 0.164 µM [rising, full curve, poor fit].

Regarding `COc1cc2c(C(=O)OCCN(C)C)c(CSc3ccccc3)n(C)c2cc1Br`, the cell number change is 3.36%. Also, the AC50 under setting [1] is 3.66 µM [rising, single point].

For the molecule `CCOC(=O)/C(=C/c1cn(C)c2ccccc12)NC(=O)c1ccccc1`, the cell number change was found to be 19.4%. In addition, the AC50 under setting [1] was 1.84 µM [rising, partial curve]. For the same molecule, the AC50 under setting [2] is 1.64 µM [rising, partial curve].

As to `CS(=O)(=O)N1CCN=C1SCc1cccc(F)c1`, the cell number change is 4.25%. Also, under setting [2], the half-maximal activity concentration (AC50) is 0.461 µM [rising, single point].

In the case of `CCOC(=O)c1c(C)[nH]c(C=O)c1Cc1cccc(Cl)c1`, the cell number change is -27.2%. In addition, the half-maximal activity concentration (AC50) under setting [1] is 0.00411 µM [falling, full curve, poor fit].

With `COc1ccc(C(=O)N2CCc3ccc(NC(=O)c4ccccn4)cc3C2)cc1F`, the concentration at half-maximal activity (AC50) under setting [2] was 1.84 µM [falling, full curve].

Consider `N#Cc1nc(COc2cccc(Cl)c2)oc1NCc1ccco1`, for which, under setting [2], the half-maximal activity concentration (AC50) was 0.13 µM [rising, single point].

Consider `Cc1ccc(-n2nc(C(=O)O)cc2-c2ccccc2)cc1`, for which the cell number change was -7.32%.

`CN1CCN(C(=O)c2ccc(Cl)c(S(=O)(=O)N3CCCCC3)c2)CC1`: the cell number change was -21.9%. Moreover, the AC50 under setting [2] is 23.1 µM [falling, single point].

For `CC1(C)Oc2ccc(C(=O)N3CCCC3)cc2N(CC(=O)NCc2ccccc2)C1=O`, the cell number change came to 74.3%. The half-maximal activity concentration (AC50) under setting [1] is 18.4 µM [rising, single point].

For `CCOC(=O)c1cnn(-c2ccccn2)c1N`, the cell number change was -22.3%. Also, the AC50 under setting [2] is 0.92 µM [rising, full curve].

As to `CCn1cc(CNC(=O)c2cc(Cl)ccc2OC)c(C)n1`, the cell number change came out at 6.19%.

Consider `Cc1noc(C)c1CSc1nc2ccccc2c(=O)n1-c1ccc(Cl)cc1`, for which the cell number change worked out at 128%. In addition, under setting [1], the AC50 was 8.2 µM [rising, partial curve]. The AC50 under setting [2] was 6.51 µM [rising, single point].

In the case of `O=C(c1ccc(F)cc1)N1CCN(c2cc(N3CCCCC3)c(F)cc2[N+](=O)[O-])CC1`, the concentration at half-maximal activity (AC50) under setting [1] is 2.91 µM [rising, single point] and the AC50 under setting [2] was 7.31 µM [rising, partial curve, poor fit].

As for `CCOc1ccc(CCNC(=O)C2CCN(c3nnc(-n4cccc4)s3)CC2)cc1OCC`, the cell number change turned out to be 3.17%. In addition, the half-maximal activity concentration (AC50) under setting [2] was 3.66 µM [rising, single point].

On to `COc1cc2cc(C[C@H](C)O)oc(=O)c2cc1OC`, for which the cell number change was determined as 17.2%. Besides, under setting [2], the AC50 is 0.164 µM [rising, full curve, poor fit].

Regarding `CCOC(=O)c1[nH]c2ccccc2c1NC(=S)Nc1ccccc1C`, the cell number change is 16.6%. The concentration at half-maximal activity (AC50) under setting [2] is 0.0651 µM [rising, full curve, poor fit].

On to `O=C(O)c1ccc(CNCc2cccc(Cl)c2Cl)cc1`, for which the cell number change was determined as 3.32%. The concentration at half-maximal activity (AC50) under setting [2] was 0.651 µM [falling, partial curve].

For `CN(C)S(=O)(=O)c1ccc(C(=O)NCC(c2cccs2)N2CCOCC2)cc1` (stereo not drawn), the cell number change came to 10.9%. Moreover, the AC50 under setting [2] was 29.1 µM [falling, single point].

On to `NCC1CC2c3ccccc3C1c1ccccc12` (stereo not drawn), for which the cell number change is -19.8%. For the same molecule, the half-maximal activity concentration (AC50) under setting [2] was 4.61 µM [falling, full curve, poor fit].

In the case of `Cc1onc(-c2ccccc2Cl)c1C(=O)N[C@@H]1C(=O)N2[C@@H]1SC(C)(C)[C@@H]2C(=O)O`, the cell number change is 14.6%. For the same molecule, under setting [2], the half-maximal activity concentration (AC50) is 29.1 µM [rising, single point].

As to `CC(/C=C/c1ccco1)=N/NC(=O)Cc1cccs1`, the cell number change is -9.68%. The concentration at half-maximal activity (AC50) under setting [2] is 3.66 µM [rising, single point].

On to `CC(CNC(=O)CN1C(=O)COc2ccc(S(=O)(=O)N3CCCCC3)cc21)c1ccccc1` (stereo not drawn), for which the cell number change was 51.2%. Under setting [1], the AC50 is 20.6 µM [rising, partial curve, poor fit]. In addition, the AC50 under setting [2] was 29.1 µM [rising, single point].

The values are drawn from PubChem BioAssay AID2685 (National Center for Advancing Translational Sciences (NCATS), 2010).
